Reference: PubChem BioAssay AID248 (DTP/NCI, 2004)
The list does not hold the whole screen: it is rich in T/C values a quarter to a half above the control, in often repeated tests (any T/C) and in doses without a T/C. Further doses and runs are listed elsewhere. T/C gives the treated animals as a percentage of the vehicle group. Some entries give survivors of the animals treated and no T/C: the source holds a T/C of zero for them, seemingly a mark for toxic or unscored doses. Some doses without a T/C left all or most animals alive at the check, yet need not have been tolerated: survival well below the control is almost never listed, so the zero probably covers shortened survival too. Counts of survivors are from the toxicity check (mostly the fifth day) where no day follows; animals may have died later. Schedule codes are those of the source, taken here to give the interval after Q, in days (D) or hours (H), and the number of doses after X. Some doses were run more than once; the values are given in rising order. Some schedule codes hold Z or #, which are not explained here. For survival time, this PubChem deposit counts one and a half times the control or more as active, and values a quarter to a half above the control carry no call in these data; other NCI protocols may use other cut-offs. Some T/C values carry the count of animals alive at the toxicity check (mostly the fifth day); without a count, all were alive then. Signs of the kind (2×) count equal records among those shown.

System: L1210 leukemia ip in BDF1 mice, survival T/C
Assay: NCI In Vivo Anticancer Drug Screen. Data for tumor model L1210 Leukemia (intraperitoneal) in B6D2F1 (BDF1) mice
Conditions: T/C endpoint: mean survival time, higher T/C = longer survival
[1] = dose: 160.0 mg/kg/injection, schedule: Q01DX005 (ip), vehicle: other

`S=c1nc[nH]c2nc[nH]c12` was tested, and the T/C (dose: 60.0 mg/kg/injection, schedule: Q08DX002 (ip), vehicle: saline) was 126 % of control, the T/C (dose: 60.0 mg/kg/injection, schedule: Q#B X015 (ip), vehicle: saline) was 142 % of control and the T/C (dose: 64.0 mg/kg/injection, schedule: Q04DX002 (ip), vehicle: alkali diluted with saline) was 106, 107, 108, 121 % of control. For the same compound, the T/C (dose: 65.0 mg/kg/injection, schedule: Q01DX009 (ip), vehicle: other) was 140 % of control, the T/C (dose: 67.0 mg/kg/injection, schedule: Q01DX015 (ip), vehicle: other) was 125 and 146 % of control and the T/C (dose: 67.5 mg/kg/injection, schedule: Q12HX006 (ip), vehicle: alkali diluted with saline) was 137 % of control. The T/C (dose: 70.0 mg/kg/injection, schedule: Q01DX001 (ip), vehicle: other) was 127, 140, 165, 177 % of control, the T/C (dose: 74.0 mg/kg/injection, schedule: Q02DX010 (ip), vehicle: carboxymethylcellulose (CMC)) was 148 % of control and the T/C (dose: 74.25 mg/kg/injection, schedule: Q02DX010 (ip), vehicle: carboxymethylcellulose (CMC)) was 110, 156, 160, 170, 186 % of control. The T/C (dose: 75.0 mg/kg/injection, schedule: Q01DX015 (ip), vehicle: alkali diluted with saline) was 145 % of control, the T/C (dose: 75.0 mg/kg/injection, schedule: Q02DX010 (ip), vehicle: carboxymethylcellulose (CMC)) was 144, 151, 153, 161 % of control and the T/C (dose: 75.0 mg/kg/injection, schedule: Q02DX010 (ip), vehicle: other) was 124, 153, 167, 180 % of control. The T/C (dose: 76.5 mg/kg/injection, schedule: Q02DX010 (ip), vehicle: carboxymethylcellulose (CMC)) was 119, 120, 146 (2×), 162 % of control, the T/C (dose: 80.0 mg/kg/injection, schedule: Q01DX005 (ip), vehicle: alkali diluted with water) was 132, 133, 138 % of control and the T/C (dose: 80.0 mg/kg/injection, schedule: Q01DX005 (ip), vehicle: other) was 118, 122, 131, 142, 145, 147, 155, 156, 159, 162, 165, 167, 170 % of control. For the same compound, the T/C (dose: 80.0 mg/kg/injection, schedule: Q01DX006 (iv), vehicle: other) was 146 % of control [5 of 6 alive], the T/C (dose: 80.0 mg/kg/injection, schedule: Q01DX009 (oral), vehicle: saline with Tween-80) was 133 % of control and the T/C (dose: 80.0 mg/kg/injection, schedule: Q01DX010 (ip), vehicle: alkali diluted with saline) was 128, 146, 148, 157 % of control. For the same compound, the T/C (dose: 80.0 mg/kg/injection, schedule: Q01DX Z (im), vehicle: other) was 126 % of control, the T/C (dose: 80.0 mg/kg/injection, schedule: Q01DX Z (oral), vehicle: other) was 148 % of control and the T/C (dose: 80.0 mg/kg/injection, schedule: Q01DX Z (sc), vehicle: other) was 142 % of control. For the same compound, the T/C (dose: 85.6 mg/kg/injection, schedule: Q02DX010 (ip), vehicle: carboxymethylcellulose (CMC)) was 128 % of control, the T/C (dose: 90.0 mg/kg/injection, schedule: Q01DX005 (ip), vehicle: saline, evaluated on day 30) was 126 and 134 % of control and the T/C (dose: 90.0 mg/kg/injection, schedule: Q01DX005 (ip), vehicle: saline, evaluated on day 35) was 152 % of control. The T/C (dose: 90.0 mg/kg/injection, schedule: Q01DX005 (ip), vehicle: saline, evaluated on day 60) was 129 % of control, the T/C (dose: 90.0 mg/kg/injection, schedule: Q01DX009 (ip), vehicle: acetone) was 132 % of control and the T/C (dose: 90.0 mg/kg/injection, schedule: Q01DX009 (ip), vehicle: alkali diluted with saline, evaluated on day 5) was 151 and 178 % of control. For the same compound, the T/C (dose: 90.0 mg/kg/injection, schedule: Q01DX009 (ip), vehicle: alkali diluted with saline, evaluated on day 45) was 180 and 236 % of control, the T/C (dose: 90.0 mg/kg/injection, schedule: Q01DX009 (ip), vehicle: alkali diluted with saline, evaluated on day 60) was 150 % of control and the T/C (dose: 90.0 mg/kg/injection, schedule: Q01DX009 (ip), vehicle: saline) was 140 % of control. For the same compound, the T/C (dose: 90.0 mg/kg/injection, schedule: Q01DX015 (ip), vehicle: alkali diluted with saline, evaluated on day 5) was 138, 140, 142, 143, 152, 164, 170, 173, 177, 186, 191 % of control, the T/C (dose: 90.0 mg/kg/injection, schedule: Q01DX015 (ip), vehicle: alkali diluted with saline, evaluated on day 35) was 170 % of control and the T/C (dose: 90.0 mg/kg/injection, schedule: Q01DX015 (ip), vehicle: alkali diluted with saline, evaluated on day 45) was 138, 143, 165, 186, 191 % of control. For the same compound, the T/C (dose: 90.0 mg/kg/injection, schedule: Q01DX015 (ip), vehicle: alkali diluted with saline, evaluated on day 46) was 149 % of control, the T/C (dose: 90.0 mg/kg/injection, schedule: Q01HX006 (ip), vehicle: saline) was 143 % of control and the T/C (dose: 90.0 mg/kg/injection, schedule: Q02DX008 (ip), vehicle: alkali diluted with saline) was 134 % of control. The T/C (dose: 90.0 mg/kg/injection, schedule: Q08DX002 (ip), vehicle: saline) was 139 % of control, the T/C (dose: 96.0 mg/kg/injection, schedule: Q## X032 (ip), vehicle: alkali diluted with saline) was 140 and 146 % of control and the T/C (dose: 100.0 mg/kg/injection, schedule: Q01DX017 (ip), vehicle: other) was 131 % of control [7 of 8 alive]. For the same compound, the T/C (dose: 100.0 mg/kg/injection, schedule: Q01DX Z (ip), vehicle: other) was 141 % of control, the T/C (dose: 100.0 mg/kg/injection, schedule: Q04DX003 (ip), vehicle: saline with Tween-80) was 148 % of control and the T/C (dose: 100.0 mg/kg/injection, schedule: Q12HX012 (ip), vehicle: alkali diluted with saline) was 148 % of control. The T/C (dose: 101.0 mg/kg/injection, schedule: Q01DX015 (ip), vehicle: other) was 143 % of control, the T/C (dose: 108.0 mg/kg/injection, schedule: Q01DX009 (ip), vehicle: other) was 143 % of control and the T/C (dose: 114.0 mg/kg/injection, schedule: Q01DX009 (ip), vehicle: alkali diluted with saline) was 149 % of control [2 of 2 alive]. The T/C (dose: 114.75 mg/kg/injection, schedule: Q02DX010 (ip), vehicle: carboxymethylcellulose (CMC)) was 98, 105, 115, 121, 127 % of control, the T/C (dose: 120.0 mg/kg/injection, schedule: Q01DX001 (ip), vehicle: saline) was 133, 134, 145, 147, 150, 155, 157, 168 % of control and the T/C (dose: 120.0 mg/kg/injection, schedule: Q01DX005 (ip), vehicle: alkali diluted with saline) was 142 % of control. The T/C (dose: 120.0 mg/kg/injection, schedule: Q01DX011 (ip), vehicle: alkali diluted with saline, evaluated on day 5) was 136 % of control, the T/C (dose: 120.0 mg/kg/injection, schedule: Q01DX011 (ip), vehicle: alkali diluted with saline, evaluated on day 35) was 136 % of control and the survivor count (dose: 120.0 mg/kg/injection, schedule: Q01DX014 (ip), vehicle: alkali diluted with saline) was 0 of 6. The T/C (dose: 125.0 mg/kg/injection, schedule: Q01DX015 (ip), vehicle: alkali diluted with saline) was 147 % of control, the T/C (dose: 125.0 mg/kg/injection, schedule: Q04DX003 (ip), vehicle: Klucel (hydroxypropylcellulose) (HPC)) was 148 % of control and the T/C (dose: 128.0 mg/kg/injection, schedule: Q04DX002 (ip), vehicle: alkali diluted with saline) was 125, 127, 131 % of control (2×). The T/C (dose: 129.2 mg/kg/injection, schedule: Q02DX010 (ip), vehicle: carboxymethylcellulose (CMC)) was 127 % of control, the T/C (dose: 134.0 mg/kg/injection, schedule: Q## X004 (ip), vehicle: alkali diluted with saline) was 134 % of control and the T/C (dose: 135.0 mg/kg/injection, schedule: Q01DX001 (ip), vehicle: alkali diluted with saline) was 131 and 134 % of control. The T/C (dose: 135.0 mg/kg/injection, schedule: Q01DX001 (ip), vehicle: carboxymethylcellulose (CMC)) was 141 % of control, the T/C (dose: 135.0 mg/kg/injection, schedule: Q01DX009 (ip), vehicle: alkali diluted with saline, evaluated on day 5) was 144 % of control and the T/C (dose: 135.0 mg/kg/injection, schedule: Q01DX009 (ip), vehicle: alkali diluted with saline, evaluated on day 45) was 135 % of control. For the same compound, the T/C (dose: 135.0 mg/kg/injection, schedule: Q01DX015 (ip), vehicle: alkali diluted with saline, evaluated on day 5) was 121, 134 (2×), 142, 148, 151, 156, 163, 164 (2×), 175 % of control, the T/C (dose: 135.0 mg/kg/injection, schedule: Q01DX015 (ip), vehicle: alkali diluted with saline, evaluated on day 35) was 164 % of control and the T/C (dose: 135.0 mg/kg/injection, schedule: Q01DX015 (ip), vehicle: alkali diluted with saline, evaluated on day 45) was 121, 134, 148, 156, 164 % of control. For the same compound, the T/C (dose: 135.0 mg/kg/injection, schedule: Q02DX008 (ip), vehicle: alkali diluted with saline) was 143 % of control, the T/C (dose: 135.0 mg/kg/injection, schedule: Q## X009 (ip), vehicle: alkali diluted with saline) was 144 % of control and the T/C (dose: 146.0 mg/kg/injection, schedule: Q01DX015 (ip), vehicle: alkali diluted with saline) was 147 % of control. For the same compound, the T/C (dose: 150.0 mg/kg/injection, schedule: Q01DX015 (ip), vehicle: alkali diluted with saline) was 147 % of control, the survivor count (dose: 151.0 mg/kg/injection, schedule: Q01DX015 (ip), vehicle: other) was 8 of 8 and the survivor count (dose: 160.0 mg/kg/injection, schedule: Q01DX005 (ip), vehicle: alkali diluted with water) was 5 of 6 and 6 of 6. For the same compound, the T/C [1] was 90 [5 of 6 alive], 93, 97, 102, 103 (2×), 108, 108 [4 of 6 alive], 139 [5 of 6 alive], 146 % of control, the survivor count [1] was 2 of 6, 5 of 6, 3 of 3 and the T/C (dose: 160.0 mg/kg/injection, schedule: Q01DX009 (oral), vehicle: saline with Tween-80) was 128 and 140 % of control. The survivor count (dose: 160.0 mg/kg/injection, schedule: Q01DX Z (ip), vehicle: carboxymethylcellulose (CMC)) was 6 of 6.
